Measured values reported in patent US10654807B2, “Toll-like receptor 8 agonists” (The University Of Kansas, priority 2013, dated 2020).
Entries after “also recorded” stand apart in the source; their conditions may differ.

Tested on: human peripheral blood mononuclear cells
Assay: cytokine/chemokine induction in human PBMCs (multiplexed bead array immunoassays)
Assay type: cell-based
Conditions: for IFN-α induction / IL-12 and IL-18 induction: ex vivo human blood/PBMC models, FIGS. 7A-7C
[1] = human PBMCs, FIG. 9, value taken as 100 percent

## CCCCc1cc2c(o1)c(N)nc1ccccc12 [Compound A8d, 2-butylfuro[2,3-c]quinolin-4-amine]
41-analyte multiplexed assay, human PBMCs, FIG. 9
  induction of G-CSF, GRO, MIP-1α and MIP-1β: induced
  IFN-α induction: bereft of IFN-α-inducing properties; also recorded: absence of IFN-α
  IL-12 and IL-18 induction: induced IL-12 and IL-18
Listed as 3
  IFN-α induction: without IFN-α inducing properties
  IL-12 and IL-18 induction: IL-12 and IL-18 induction profiles
[1]
  maximal response G-CSF: 622 pg/mL
  maximal response GRO: 515 pg/mL
  maximal response MIP-1α: 10780 pg/mL
  maximal response MIP-1β: 10374 pg/mL
